Measurements taken from article PMC3762332.
For at least one entry, the source does not settle the construct or the ends of the probe. For part of these data: Tags and fusion partners may be left off the protein sequences shown.

Amino acid sequences for entries named in this document (tags omitted). A change or cut given only in a name is not applied to a line headed by its entry.
UniProt Q15583: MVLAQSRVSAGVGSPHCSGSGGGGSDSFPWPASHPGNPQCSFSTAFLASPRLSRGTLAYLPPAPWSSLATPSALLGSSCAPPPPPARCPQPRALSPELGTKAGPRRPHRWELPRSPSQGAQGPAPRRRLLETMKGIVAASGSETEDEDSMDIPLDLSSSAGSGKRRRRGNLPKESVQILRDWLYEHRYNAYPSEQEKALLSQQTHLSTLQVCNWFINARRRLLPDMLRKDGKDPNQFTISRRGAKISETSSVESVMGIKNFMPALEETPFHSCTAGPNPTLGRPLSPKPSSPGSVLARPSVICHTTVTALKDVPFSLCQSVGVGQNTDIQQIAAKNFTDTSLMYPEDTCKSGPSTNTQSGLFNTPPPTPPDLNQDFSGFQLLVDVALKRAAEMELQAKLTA
UniProt Q8TAF7: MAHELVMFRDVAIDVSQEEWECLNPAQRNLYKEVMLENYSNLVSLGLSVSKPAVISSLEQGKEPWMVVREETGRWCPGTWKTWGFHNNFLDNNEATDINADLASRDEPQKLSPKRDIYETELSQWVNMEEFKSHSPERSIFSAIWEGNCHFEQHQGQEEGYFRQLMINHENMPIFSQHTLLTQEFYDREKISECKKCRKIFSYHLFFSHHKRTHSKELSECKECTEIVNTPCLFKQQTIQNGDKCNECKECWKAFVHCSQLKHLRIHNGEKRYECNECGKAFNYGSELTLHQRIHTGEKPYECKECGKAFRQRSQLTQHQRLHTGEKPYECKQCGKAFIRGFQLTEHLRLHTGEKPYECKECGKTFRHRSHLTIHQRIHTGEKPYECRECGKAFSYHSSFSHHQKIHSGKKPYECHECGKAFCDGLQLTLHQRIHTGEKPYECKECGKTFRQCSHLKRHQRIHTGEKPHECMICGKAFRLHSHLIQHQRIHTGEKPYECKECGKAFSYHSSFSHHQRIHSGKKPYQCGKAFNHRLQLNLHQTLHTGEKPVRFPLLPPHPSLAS
UniProt Q8NC26: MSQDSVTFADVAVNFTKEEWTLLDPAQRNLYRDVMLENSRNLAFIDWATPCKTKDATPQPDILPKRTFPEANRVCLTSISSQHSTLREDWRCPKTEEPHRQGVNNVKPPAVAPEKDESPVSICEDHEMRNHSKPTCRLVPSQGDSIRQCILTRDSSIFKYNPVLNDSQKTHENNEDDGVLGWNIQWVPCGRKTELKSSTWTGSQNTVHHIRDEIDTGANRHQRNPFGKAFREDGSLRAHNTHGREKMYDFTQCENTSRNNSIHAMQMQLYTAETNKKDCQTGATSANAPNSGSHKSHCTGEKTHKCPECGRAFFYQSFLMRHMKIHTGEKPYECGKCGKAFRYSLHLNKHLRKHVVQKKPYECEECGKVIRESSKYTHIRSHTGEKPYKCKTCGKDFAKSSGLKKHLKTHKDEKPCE
UniProt O00716: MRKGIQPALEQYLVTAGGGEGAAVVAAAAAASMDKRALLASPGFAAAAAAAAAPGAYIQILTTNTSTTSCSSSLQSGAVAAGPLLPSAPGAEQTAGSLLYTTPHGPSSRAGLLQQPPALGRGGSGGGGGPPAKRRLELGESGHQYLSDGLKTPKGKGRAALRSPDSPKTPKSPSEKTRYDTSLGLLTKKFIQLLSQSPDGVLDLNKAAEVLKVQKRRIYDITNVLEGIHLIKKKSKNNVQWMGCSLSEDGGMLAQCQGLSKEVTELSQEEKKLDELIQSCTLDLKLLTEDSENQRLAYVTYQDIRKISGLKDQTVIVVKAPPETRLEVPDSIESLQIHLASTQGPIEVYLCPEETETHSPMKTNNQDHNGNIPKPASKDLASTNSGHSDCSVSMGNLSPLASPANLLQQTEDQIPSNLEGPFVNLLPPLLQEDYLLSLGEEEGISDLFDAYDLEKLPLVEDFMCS
UniProt Q08945, whole entry: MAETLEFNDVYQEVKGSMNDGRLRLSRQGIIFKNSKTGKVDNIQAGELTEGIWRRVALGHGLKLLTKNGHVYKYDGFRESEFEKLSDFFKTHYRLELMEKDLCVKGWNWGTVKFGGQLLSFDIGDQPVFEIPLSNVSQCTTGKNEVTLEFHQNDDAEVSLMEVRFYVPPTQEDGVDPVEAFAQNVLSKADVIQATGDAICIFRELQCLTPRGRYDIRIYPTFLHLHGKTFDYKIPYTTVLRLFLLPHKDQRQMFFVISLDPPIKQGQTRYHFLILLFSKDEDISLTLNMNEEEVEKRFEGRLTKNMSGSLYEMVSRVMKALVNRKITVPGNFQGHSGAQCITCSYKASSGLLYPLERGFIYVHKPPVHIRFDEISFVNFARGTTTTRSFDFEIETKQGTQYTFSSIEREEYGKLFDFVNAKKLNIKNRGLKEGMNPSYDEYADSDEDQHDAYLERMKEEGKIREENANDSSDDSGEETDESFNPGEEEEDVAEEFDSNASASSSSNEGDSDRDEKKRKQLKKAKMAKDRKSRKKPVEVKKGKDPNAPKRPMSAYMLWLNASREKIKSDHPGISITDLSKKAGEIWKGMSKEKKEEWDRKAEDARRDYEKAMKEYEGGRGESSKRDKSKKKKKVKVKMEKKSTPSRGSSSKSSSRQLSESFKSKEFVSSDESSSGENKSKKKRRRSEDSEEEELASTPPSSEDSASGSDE
UniProt P43694: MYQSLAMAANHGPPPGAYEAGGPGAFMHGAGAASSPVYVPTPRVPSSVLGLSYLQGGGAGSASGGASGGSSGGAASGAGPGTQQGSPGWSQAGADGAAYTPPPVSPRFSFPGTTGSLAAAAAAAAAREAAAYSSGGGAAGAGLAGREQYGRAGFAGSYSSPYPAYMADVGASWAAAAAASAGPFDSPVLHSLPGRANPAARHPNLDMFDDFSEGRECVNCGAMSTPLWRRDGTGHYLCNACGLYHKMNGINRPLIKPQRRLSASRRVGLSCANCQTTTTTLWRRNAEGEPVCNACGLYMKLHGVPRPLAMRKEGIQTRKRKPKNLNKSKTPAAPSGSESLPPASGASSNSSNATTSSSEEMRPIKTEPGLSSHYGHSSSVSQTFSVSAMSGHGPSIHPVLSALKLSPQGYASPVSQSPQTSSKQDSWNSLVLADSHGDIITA
UniProt Q8IW36: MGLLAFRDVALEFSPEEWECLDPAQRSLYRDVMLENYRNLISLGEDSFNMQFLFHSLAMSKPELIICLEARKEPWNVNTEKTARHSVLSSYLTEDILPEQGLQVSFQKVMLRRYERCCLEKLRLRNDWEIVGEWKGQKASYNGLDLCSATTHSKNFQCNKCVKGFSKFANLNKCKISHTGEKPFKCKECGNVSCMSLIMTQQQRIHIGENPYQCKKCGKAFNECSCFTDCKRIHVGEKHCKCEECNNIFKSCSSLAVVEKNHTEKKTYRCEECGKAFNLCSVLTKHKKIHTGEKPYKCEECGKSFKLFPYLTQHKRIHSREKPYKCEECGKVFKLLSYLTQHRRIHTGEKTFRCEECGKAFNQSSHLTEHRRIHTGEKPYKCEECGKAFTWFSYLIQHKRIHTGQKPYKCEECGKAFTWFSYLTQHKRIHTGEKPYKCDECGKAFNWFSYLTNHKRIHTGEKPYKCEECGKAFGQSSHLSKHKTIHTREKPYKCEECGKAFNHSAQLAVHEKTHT
UniProt P20719: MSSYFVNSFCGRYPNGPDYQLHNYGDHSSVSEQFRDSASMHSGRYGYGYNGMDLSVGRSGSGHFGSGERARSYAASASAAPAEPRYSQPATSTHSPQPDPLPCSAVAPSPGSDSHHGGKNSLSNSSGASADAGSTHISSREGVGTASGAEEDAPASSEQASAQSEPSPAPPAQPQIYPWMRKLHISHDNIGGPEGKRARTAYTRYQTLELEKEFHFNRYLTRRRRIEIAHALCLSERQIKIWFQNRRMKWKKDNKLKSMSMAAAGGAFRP
UniProt Q9BWM5: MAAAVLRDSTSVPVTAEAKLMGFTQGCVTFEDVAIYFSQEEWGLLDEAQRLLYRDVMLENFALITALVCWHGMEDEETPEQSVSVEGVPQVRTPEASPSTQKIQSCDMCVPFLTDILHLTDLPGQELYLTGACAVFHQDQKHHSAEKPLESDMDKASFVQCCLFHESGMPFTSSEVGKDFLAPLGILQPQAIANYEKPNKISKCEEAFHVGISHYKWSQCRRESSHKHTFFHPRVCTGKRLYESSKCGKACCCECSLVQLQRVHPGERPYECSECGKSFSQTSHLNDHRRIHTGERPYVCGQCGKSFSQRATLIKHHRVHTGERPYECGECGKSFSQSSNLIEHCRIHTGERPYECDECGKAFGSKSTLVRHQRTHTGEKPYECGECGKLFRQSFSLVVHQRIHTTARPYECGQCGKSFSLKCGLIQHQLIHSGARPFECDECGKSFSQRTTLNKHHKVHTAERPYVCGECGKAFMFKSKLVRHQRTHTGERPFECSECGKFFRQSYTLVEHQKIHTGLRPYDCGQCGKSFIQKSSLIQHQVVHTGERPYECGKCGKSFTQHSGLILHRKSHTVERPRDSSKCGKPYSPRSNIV
UniProt P23771: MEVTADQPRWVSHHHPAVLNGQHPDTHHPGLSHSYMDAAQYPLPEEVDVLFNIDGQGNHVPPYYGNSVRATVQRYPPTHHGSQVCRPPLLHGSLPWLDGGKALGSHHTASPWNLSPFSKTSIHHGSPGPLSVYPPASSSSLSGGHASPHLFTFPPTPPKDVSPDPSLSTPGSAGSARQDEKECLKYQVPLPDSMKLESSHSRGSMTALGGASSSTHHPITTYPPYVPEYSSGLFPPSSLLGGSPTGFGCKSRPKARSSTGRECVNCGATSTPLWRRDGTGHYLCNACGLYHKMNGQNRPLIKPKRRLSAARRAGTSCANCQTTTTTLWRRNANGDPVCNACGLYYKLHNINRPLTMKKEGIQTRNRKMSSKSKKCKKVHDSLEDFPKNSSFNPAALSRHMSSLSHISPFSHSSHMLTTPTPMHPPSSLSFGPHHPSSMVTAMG
UniProt P37231: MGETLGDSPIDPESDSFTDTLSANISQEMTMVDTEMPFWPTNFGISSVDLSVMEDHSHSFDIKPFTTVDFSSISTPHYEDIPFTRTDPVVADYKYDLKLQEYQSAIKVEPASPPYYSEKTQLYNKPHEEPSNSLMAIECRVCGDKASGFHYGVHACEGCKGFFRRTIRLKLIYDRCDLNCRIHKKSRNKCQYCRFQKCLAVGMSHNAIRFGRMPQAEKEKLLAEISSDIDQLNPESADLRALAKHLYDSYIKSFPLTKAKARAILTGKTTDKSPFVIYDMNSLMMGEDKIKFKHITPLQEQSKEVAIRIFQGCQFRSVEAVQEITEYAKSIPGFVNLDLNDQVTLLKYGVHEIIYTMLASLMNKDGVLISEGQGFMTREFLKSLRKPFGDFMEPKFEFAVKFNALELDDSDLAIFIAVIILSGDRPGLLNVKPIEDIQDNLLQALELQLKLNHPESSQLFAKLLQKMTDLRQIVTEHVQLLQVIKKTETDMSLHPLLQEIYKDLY
UniProt P19793: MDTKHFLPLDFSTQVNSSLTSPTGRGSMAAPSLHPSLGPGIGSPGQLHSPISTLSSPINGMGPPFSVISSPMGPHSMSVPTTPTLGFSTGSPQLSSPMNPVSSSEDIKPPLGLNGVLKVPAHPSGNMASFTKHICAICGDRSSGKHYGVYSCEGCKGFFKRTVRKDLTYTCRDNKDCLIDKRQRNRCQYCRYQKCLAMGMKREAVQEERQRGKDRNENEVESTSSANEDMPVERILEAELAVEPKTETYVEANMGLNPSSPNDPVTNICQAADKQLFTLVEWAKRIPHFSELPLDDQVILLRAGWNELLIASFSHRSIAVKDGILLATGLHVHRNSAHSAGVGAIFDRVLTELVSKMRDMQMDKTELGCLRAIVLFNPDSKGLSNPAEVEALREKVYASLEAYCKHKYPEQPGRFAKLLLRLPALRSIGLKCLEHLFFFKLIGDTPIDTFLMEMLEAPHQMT

Experiments:
Experiment in all cases: protein microarray
Conditions in all cases: 10-fold cold unmethylated competitor; 5mC at CpG (SssI, both strands); recombinant protein; protein details: GST (N-terminal); label: Cy5
TGIF1 (Homo sapiens) = TGIF1 (Homo sapiens) (UniProt Q15583)
ZNF461 (Homo sapiens) = ZNF461 (Homo sapiens) (UniProt Q8TAF7)
ZNF114 (Homo sapiens) = ZNF114 (Homo sapiens) (UniProt Q8NC26)
BCL3 (Homo sapiens) = biological target: T1, BCL3 (Homo sapiens) (UniProt P20749)
T1 sequence (looked up, limits assumed): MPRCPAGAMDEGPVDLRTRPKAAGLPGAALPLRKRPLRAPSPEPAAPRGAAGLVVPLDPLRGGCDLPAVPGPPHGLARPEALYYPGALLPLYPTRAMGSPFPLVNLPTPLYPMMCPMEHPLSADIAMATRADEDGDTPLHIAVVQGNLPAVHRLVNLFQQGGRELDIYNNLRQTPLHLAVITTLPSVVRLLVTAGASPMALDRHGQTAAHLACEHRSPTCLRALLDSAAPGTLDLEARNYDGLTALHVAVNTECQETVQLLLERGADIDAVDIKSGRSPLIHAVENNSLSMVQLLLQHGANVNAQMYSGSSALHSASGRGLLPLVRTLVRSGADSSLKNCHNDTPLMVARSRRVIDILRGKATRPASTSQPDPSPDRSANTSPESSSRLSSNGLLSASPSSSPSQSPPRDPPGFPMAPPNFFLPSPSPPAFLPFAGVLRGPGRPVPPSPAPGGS

RNF138 (Homo sapiens) = biological target: T2, RNF138 (Homo sapiens) (UniProt Q8WVD3)
T2 sequence (looked up, limits assumed): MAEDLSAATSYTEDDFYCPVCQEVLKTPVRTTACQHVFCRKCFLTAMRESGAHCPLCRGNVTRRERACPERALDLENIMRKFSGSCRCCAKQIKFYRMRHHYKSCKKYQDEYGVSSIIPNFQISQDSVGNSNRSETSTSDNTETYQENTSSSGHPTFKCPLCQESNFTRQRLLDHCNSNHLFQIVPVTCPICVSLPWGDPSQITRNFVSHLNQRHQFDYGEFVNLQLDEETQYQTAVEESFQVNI

E2F3 (Homo sapiens) = E2F3 (Homo sapiens) (UniProt O00716)
SSRP1 (Homo sapiens) = SSRP1 (Homo sapiens) (UniProt Q08945)
GATA4 (Homo sapiens) = GATA4 (Homo sapiens) (UniProt P43694)
ZNF695 (Homo sapiens) = ZNF695 (Homo sapiens) (UniProt Q8IW36)
HOXA5 (Homo sapiens) = HOXA5 (Homo sapiens) (UniProt P20719)
ZNF416 (Homo sapiens) = ZNF416 (Homo sapiens) (UniProt Q9BWM5)
GATA3 (Homo sapiens) = GATA3 (Homo sapiens) (UniProt P23771)
PPARG (Homo sapiens) = PPARG (Homo sapiens) (UniProt P37231)
RXRA (Homo sapiens) = RXRA (Homo sapiens) (UniProt P19793)
SMAD4 (Homo sapiens) = biological target: T3, SMAD4 (Homo sapiens) (UniProt Q13485)
T3 sequence (looked up, limits assumed): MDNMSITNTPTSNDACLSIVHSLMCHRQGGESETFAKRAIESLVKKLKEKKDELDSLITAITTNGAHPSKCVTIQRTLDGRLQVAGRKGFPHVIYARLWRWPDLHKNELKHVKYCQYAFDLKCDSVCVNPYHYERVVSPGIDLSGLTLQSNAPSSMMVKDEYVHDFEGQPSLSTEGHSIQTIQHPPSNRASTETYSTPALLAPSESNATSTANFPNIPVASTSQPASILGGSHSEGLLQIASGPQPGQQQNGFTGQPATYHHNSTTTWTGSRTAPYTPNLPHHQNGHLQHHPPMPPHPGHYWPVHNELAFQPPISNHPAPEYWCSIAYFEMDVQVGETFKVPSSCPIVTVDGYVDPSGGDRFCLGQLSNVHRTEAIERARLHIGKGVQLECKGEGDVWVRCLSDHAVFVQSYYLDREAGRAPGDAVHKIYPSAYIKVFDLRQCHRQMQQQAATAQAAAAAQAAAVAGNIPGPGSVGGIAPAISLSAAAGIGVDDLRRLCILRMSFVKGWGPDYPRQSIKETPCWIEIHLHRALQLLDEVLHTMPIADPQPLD

NRF1 (Homo sapiens) = biological target: T4, NRF1 (Homo sapiens) (UniProt Q16656)
T4 sequence (looked up, limits assumed): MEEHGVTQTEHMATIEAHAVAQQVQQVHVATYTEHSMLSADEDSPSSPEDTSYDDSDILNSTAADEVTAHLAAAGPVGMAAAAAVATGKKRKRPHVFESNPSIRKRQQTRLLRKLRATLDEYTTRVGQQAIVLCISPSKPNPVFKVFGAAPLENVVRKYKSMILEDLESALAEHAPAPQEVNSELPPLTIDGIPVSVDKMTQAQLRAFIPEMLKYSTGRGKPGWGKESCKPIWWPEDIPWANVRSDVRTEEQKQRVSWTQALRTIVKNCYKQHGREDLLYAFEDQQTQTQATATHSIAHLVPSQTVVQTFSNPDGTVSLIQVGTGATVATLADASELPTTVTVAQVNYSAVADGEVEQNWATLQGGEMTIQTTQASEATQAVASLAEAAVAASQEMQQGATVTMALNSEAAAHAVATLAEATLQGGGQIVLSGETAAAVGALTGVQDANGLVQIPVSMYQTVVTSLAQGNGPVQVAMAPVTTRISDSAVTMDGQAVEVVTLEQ

SCAPER (Homo sapiens) = biological target: T5, SCAPER (Homo sapiens) (UniProt Q9BY12)
T5 sequence (looked up, limits assumed): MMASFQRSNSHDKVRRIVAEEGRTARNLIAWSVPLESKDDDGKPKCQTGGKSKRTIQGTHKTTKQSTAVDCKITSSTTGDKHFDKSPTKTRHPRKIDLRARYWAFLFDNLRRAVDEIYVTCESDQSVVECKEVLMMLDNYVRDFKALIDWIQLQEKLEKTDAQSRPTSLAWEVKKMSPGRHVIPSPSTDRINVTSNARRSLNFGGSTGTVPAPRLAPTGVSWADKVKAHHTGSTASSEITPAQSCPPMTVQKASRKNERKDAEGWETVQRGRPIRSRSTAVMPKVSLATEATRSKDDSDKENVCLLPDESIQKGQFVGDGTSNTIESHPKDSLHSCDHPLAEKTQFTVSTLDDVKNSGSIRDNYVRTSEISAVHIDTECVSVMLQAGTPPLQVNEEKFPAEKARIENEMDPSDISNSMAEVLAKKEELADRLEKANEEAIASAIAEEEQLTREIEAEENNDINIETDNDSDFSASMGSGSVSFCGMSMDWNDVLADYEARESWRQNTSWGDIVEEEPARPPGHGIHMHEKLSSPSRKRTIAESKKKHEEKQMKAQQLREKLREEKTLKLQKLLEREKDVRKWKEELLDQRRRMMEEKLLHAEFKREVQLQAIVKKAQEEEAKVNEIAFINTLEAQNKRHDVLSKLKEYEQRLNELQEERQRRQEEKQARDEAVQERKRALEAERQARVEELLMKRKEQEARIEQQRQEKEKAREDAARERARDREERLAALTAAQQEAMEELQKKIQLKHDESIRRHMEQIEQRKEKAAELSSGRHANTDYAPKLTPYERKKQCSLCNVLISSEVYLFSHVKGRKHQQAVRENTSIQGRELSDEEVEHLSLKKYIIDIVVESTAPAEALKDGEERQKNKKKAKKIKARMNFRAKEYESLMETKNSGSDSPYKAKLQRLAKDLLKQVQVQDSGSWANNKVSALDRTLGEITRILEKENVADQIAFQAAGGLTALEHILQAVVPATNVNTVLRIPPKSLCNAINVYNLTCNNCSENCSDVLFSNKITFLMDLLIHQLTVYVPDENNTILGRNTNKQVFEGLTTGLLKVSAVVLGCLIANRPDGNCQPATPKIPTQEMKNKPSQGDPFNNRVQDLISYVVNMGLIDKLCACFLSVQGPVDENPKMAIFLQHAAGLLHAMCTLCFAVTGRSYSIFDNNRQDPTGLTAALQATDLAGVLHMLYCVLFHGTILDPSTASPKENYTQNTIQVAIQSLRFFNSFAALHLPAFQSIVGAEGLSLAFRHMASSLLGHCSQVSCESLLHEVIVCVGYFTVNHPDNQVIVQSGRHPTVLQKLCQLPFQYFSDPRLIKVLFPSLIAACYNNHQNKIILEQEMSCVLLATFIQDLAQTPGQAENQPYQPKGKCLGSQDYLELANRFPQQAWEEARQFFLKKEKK

ZCCHC7 (Homo sapiens) = biological target: T6, ZCCHC7 (Homo sapiens) (UniProt Q8N3Z6)
T6 sequence (looked up, limits assumed): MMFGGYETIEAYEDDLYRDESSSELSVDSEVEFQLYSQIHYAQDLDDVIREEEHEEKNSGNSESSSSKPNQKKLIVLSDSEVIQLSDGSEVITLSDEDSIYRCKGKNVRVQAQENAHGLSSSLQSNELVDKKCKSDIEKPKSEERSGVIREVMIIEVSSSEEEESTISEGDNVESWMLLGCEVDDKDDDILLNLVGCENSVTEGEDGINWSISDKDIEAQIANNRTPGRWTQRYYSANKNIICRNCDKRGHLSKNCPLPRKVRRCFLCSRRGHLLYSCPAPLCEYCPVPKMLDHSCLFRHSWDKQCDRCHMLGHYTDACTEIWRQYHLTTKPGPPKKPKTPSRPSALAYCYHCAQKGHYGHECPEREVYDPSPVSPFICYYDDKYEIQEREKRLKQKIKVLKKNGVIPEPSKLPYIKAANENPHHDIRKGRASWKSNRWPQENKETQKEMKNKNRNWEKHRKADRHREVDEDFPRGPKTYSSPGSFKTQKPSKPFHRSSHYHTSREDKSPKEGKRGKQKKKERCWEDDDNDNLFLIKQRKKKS

Measured: binding result

AACCGTCGAAAAACCGTCGCCCTATAGTGAGTGCTATTA (double strand) [M426]
binds: TGIF1 (Homo sapiens) | ZNF461 (Homo sapiens) | ZNF114 (Homo sapiens)

ACCCGGATTTACCCGGACCCTATAGTGAGTGCTATTA (double strand) [M313]
binds: BCL3 (Homo sapiens) | RNF138 (Homo sapiens) | E2F3 (Homo sapiens) | SSRP1 (Homo sapiens) | GATA4 (Homo sapiens) | ZNF695 (Homo sapiens) | HOXA5 (Homo sapiens) | ZNF416 (Homo sapiens) | GATA3 (Homo sapiens) | PPARG (Homo sapiens) | RXRA (Homo sapiens) | SMAD4 (Homo sapiens) | ZNF114 (Homo sapiens) | NRF1 (Homo sapiens) | SCAPER (Homo sapiens)

CACGACGCTTTCACGACGCCCCTATAGTGAGTGCTATTA (double strand) [M435]
binds: RNF138 (Homo sapiens) | HOXA5 (Homo sapiens) | ZNF416 (Homo sapiens) | TGIF1 (Homo sapiens) | ZNF461 (Homo sapiens) | RXRA (Homo sapiens) | ZNF114 (Homo sapiens)

CCCGCTCAAACCCGCTCCCCTATAGTGAGTGCTATTA (double strand) [M300]
binds: BCL3 (Homo sapiens) | RNF138 (Homo sapiens) | E2F3 (Homo sapiens) | SSRP1 (Homo sapiens) | GATA4 (Homo sapiens) | ZNF695 (Homo sapiens) | HOXA5 (Homo sapiens) | ZNF416 (Homo sapiens) | ZCCHC7 (Homo sapiens) | GATA3 (Homo sapiens) | PPARG (Homo sapiens) | RXRA (Homo sapiens) | SMAD4 (Homo sapiens) | ZNF114 (Homo sapiens) | SCAPER (Homo sapiens)

CCGCCGGAAACCGCCGGCCCTATAGTGAGTGCTATTA (double strand) [M65]
binds: HOXA5 (Homo sapiens) | ZNF461 (Homo sapiens) | ZNF114 (Homo sapiens) | SCAPER (Homo sapiens)

CTCGCCCTTTCTCGCCCCCCTATAGTGAGTGCTATTA (double strand) [M316]
binds: BCL3 (Homo sapiens) | RNF138 (Homo sapiens) | E2F3 (Homo sapiens) | SSRP1 (Homo sapiens) | GATA4 (Homo sapiens) | ZNF695 (Homo sapiens) | HOXA5 (Homo sapiens) | ZNF416 (Homo sapiens) | ZCCHC7 (Homo sapiens) | GATA3 (Homo sapiens) | PPARG (Homo sapiens) | RXRA (Homo sapiens) | SMAD4 (Homo sapiens) | ZNF114 (Homo sapiens) | SCAPER (Homo sapiens)

GACGAGAAGGGGACGAGAACCCTATAGTGAGTGCTATTA (double strand) [M422]
binds: RNF138 (Homo sapiens) | HOXA5 (Homo sapiens) | TGIF1 (Homo sapiens) | ZNF461 (Homo sapiens) | ZNF114 (Homo sapiens)

TGGGCGCTTTTGGGCGCCCCTATAGTGAGTGCTATTA (double strand) [M315]
binds: BCL3 (Homo sapiens) | RNF138 (Homo sapiens) | E2F3 (Homo sapiens) | SSRP1 (Homo sapiens) | GATA4 (Homo sapiens) | ZNF695 (Homo sapiens) | HOXA5 (Homo sapiens) | ZNF416 (Homo sapiens) | ZCCHC7 (Homo sapiens) | PPARG (Homo sapiens) | RXRA (Homo sapiens) | SMAD4 (Homo sapiens) | ZNF114 (Homo sapiens) | SCAPER (Homo sapiens)
